Data taken from PubChem BioAssay AID2685 (National Center for Advancing Translational Sciences (NCATS), 2010).
The campaign covered roughly 320,000 compounds. About 2,100 (0.66%) were called active. Inconclusive means that the source gave no clear call. Such entries were picked first, then a sample of the others. Calls come from the whole dose curve; as a rule, active = well fitted inhibition curve with a large enough effect in the signal ratio, with a control signal flat (not every such curve was filed as active); inconclusive = small, poorly fitted or top-dose-only effect, or effect the other way, or a change in a side signal; inactive = flat fitted curve, though single readings scatter; the % refers to the signal ratio. Potencies of inconclusive entries are doubtful fits and often do not repeat.

Experiment: qHTS Assay for Lipid Storage Modulators in Drosophila S3 Cells
Conditions: BODIPY lipid droplet fluorescence, 18-24 h, cells fed with added oleic acid; lipid storage change, negative = inhibition: at 46.1 µM (top of the series) unless noted
In short: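 Laser-scanning cytometry quantifies lipid droplet accumulation (500–530 nm total intensity; droplet/cell object ratio) in oleic acid-fed (400 uM added) Drosophila S3 cells treated with a concentration series. 20 uM Triacsin C defined 100% inhibition.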
% is set by controls: 0 for no effect and ±100 for the full control effect; potency is the fitted concentration of half-maximal effect.

Structure (SMILES) | lipid storage change, negative = inhibition | Potency
COc1ccc(NC(=O)c2ccc3c(c2)OCCO3)cc1OC | inconclusive: -55.5% | –
CC[N+](CC)(CC=C(C)C)CC(=O)OC | inconclusive: -27.7% | –
Cc1cc(N)nc(SCC(=O)N2C(C)CCCC2C)n1 (stereo not drawn) | inconclusive: -26.1% | –
COCc1ccc(C(=O)Nc2ccccc2C(=O)NCc2cccnc2)cc1 | inactive | –
CN1CCN(NC(=O)c2cc(-c3ccc(Br)s3)nc3ccccc23)CC1 | inconclusive: 114% | –
C#CCOCCOCCOCCNc1nc(N2CCN(C(=O)CCCCCCCCCCNC(=O)[C@H](CCCCN)n3cc(CCO)nn3)CC2)nc(N2CCN(C(=O)CCCCCCCCCCNC(=O)[C@@H]([C@H](C)O)n3cc(C)nn3)CC2)n1 | inconclusive: -11.7% | –
O=C(COC(=O)C1(c2ccccc2F)CCCC1)NCc1cccs1 | – | inconclusive: 1.64 µM [falling, partial curve, poor fit]
O=S(=O)(c1ccccc1)c1nc(NCc2cccnc2)sc1Cl | inconclusive: -5.48% | –
COc1cc2c(cc1OC)-c1cc(NC3CCCC3)nc(=O)n1CC2 | inconclusive: -5.79% | –
O=S(=O)(Nc1ccc2c(c1)OCO2)c1cccc(Br)c1 | – | inconclusive: 3.26 µM [falling, full curve]
O=C(CSc1nnc2ccccn12)Nc1ccc2c(c1)OCCO2 | inconclusive: -4.17% | –
Cc1nc(N/N=C/c2cccc(F)c2)cc(N2CCOCC2)n1 | inconclusive: -26.4% | –
O=S(=O)(Cc1nc2ccccc2s1)c1ccccc1 | inconclusive: 29.2% | –
C[C@]12CCC(=O)CC1=CCC1C3CC=C(C#N)[C@@]3(C)CC[C@@]12O (stereo partly drawn) | inconclusive: -24% | –
Cc1ccc(S(=O)(=O)Nc2cccc(C(=O)NCCN3CCOCC3)c2)cc1F | – | inconclusive: 1.64 µM [falling, partial curve]
Cc1nc(-c2ccccn2)sc1C(=O)Nc1ccc(Cl)c(Cl)c1 | inconclusive: -52.9% | –
CC(C)(C)C(=O)Cn1nnc(-c2ccc(C(F)(F)F)cc2)n1 | inconclusive: 11.7% | –
O=C(NCCc1nc2ccccc2[nH]1)c1ccc(Br)o1 | – | inconclusive: 29.1 µM [falling, single point]
C(#Cc1ccccc1)CN1CCN(c2ccccn2)CC1 | – | inconclusive: 32.6 µM [falling, single point]
Cc1onc(-c2c(F)cccc2Cl)c1C(=O)Nc1ccc(S(=O)(=O)Nc2ncccn2)cc1 | inconclusive: 45.2% | –
CC(C(=O)NCC1(c2ccccc2)CCCC1)N1CCCC1 (stereo not drawn) | inconclusive: -139% | –
CCC1=C2CC[C@H]3C(=O)N(C)C(=O)[C@H]3[C@H]2[C@@]2(Cc3ccccc3)C(=NCCOC)OC(=O)N2C1=O | inconclusive: 7.08% | –
CCOC(=O)N1CCC(c2nc(C)sc2C(=O)O)CC1 | inconclusive: 5.92% | –
CN(CCc1ccccn1)S(=O)(=O)c1ccccc1F | inconclusive: 12.8% | –
CCC1CCC2(CC1)NC(=O)N(CC(=O)Nc1cccc(S(=O)(=O)N(C)c3ccccc3)c1)C2=O (stereo not drawn) | inconclusive: -16% | –
Cc1cc(=O)n2nc(N3CCCC3C(=O)NCc3ccccn3)sc2n1 (stereo not drawn) | inconclusive: -110% | –

Compounds from the list above containing an aryl methoxy group, in the order listed:
Structure (SMILES) | lipid storage change, negative = inhibition | Potency
COc1ccc(NC(=O)c2ccc3c(c2)OCCO3)cc1OC | inconclusive: -55.5% | –
COc1cc2c(cc1OC)-c1cc(NC3CCCC3)nc(=O)n1CC2 | inconclusive: -5.79% | –

Following part:

Structure (SMILES) | lipid storage change, negative = inhibition | Potency
Cc1ccc2ccccc2[n+]1CCCS(=O)(=O)[O-] | inconclusive: -7.86% | –
Cc1ccc(C(=O)NC2(C(F)(F)F)N=C3SCCN3C2=O)cc1 (stereo not drawn) | – | inconclusive: 0.259 µM [falling, full curve]
COc1cc2c(C#CCCCO)c(-c3ccc(C#N)cc3)oc(=O)c2cc1OC | inconclusive: 13.6% | –
COc1ccc(C)cc1NC(=O)CSCc1ccccc1C | – | inconclusive: 14.6 µM [falling, partial curve, poor fit]
CC1CCN(Cc2c(C(=O)N/N=C/c3ccc(C(F)(F)F)cc3)nnn2-c2nonc2N)CC1 | inconclusive: -147% | –
O=C(CN1CCCc2ccccc21)NCCc1ccc(F)cc1 | inconclusive: 0.919% | –
CC(=O)Nc1ncc(Cc2cc(Cl)ccc2Cl)s1 | – | inconclusive: 25.9 µM [activator, single point]
N#CC1(NC(=O)COC(=O)c2nc(Cl)ccc2Cl)CCCCC1 | inconclusive: 4.72% | –
COc1ccc(N(C(=O)c2ccco2)C(C(=O)NC2CCCC2)c2ccco2)cc1OC (stereo not drawn) | – | inconclusive: 0.651 µM [falling, partial curve, poor fit]
Cn1nnc2ccccc2c1=O | inconclusive: 20.4% | –
Nc1nc2c(s1)COc1ccccc1-2 | – | inconclusive: 16.4 µM [activator, single point]
Cc1ccc(Nc2nnc(SCC(=O)Nc3ncc(S(=O)(=O)c4ccc([N+](=O)[O-])cc4)s3)s2)cc1 | – | inconclusive: 0.517 µM [rising, full curve, poor fit]
COC(=O)c1cc(C(=O)N2CCN(c3cccc(Cl)c3)CC2)cc([N+](=O)[O-])c1 | inconclusive: 26.6% | –
COc1ccc(CNC(=S)Nc2ccc(F)c(Cl)c2)cc1OC | inconclusive: -52.8% [at 0.00295 µM] | –
COc1ccc(-c2nc(NC(=O)CSc3nnc4ccccn34)ns2)cc1 | inconclusive: 8.83% | –
CCN(CC(=O)NCc1ccc(Cl)cc1)C(=O)CSCC(=O)Nc1ccc(OC)cc1 | – | inconclusive: 29.1 µM [falling, single point]
O=C(CN1CCN(c2ccccn2)CC1)NCCc1ccccc1 | inconclusive: 23% | –
CC(C)(CNC(=O)c1ccc(Cl)c(S(=O)(=O)N2CCc3ccccc3C2)c1)N1CCOCC1 | inconclusive: 26.3% [at 9.22 µM] | –
CC(=O)Cc1nsc(NC(=O)c2ccc(-c3cccc(Cl)c3)o2)n1 | inconclusive: 44.5% | –
CCc1nc2ccccc2c(C(=O)OCC(=O)N(CC(C)C)c2c(N)n(Cc3ccccc3)c(=O)[nH]c2=O)c1C | – | inconclusive: 2.59 µM [activator, partial curve]
O=C(NCc1ccccc1)c1ccc(-c2ccccc2C(F)(F)F)o1 | – | inconclusive: 5.8 µM [activator, partial curve, poor fit]
CCOc1ncccc1C(=O)OCC(=O)NC1CC1 | inconclusive: 3.3% | –
O=C(COC(=O)c1ccc(Br)o1)NCc1cccs1 | inconclusive: 42.1% | –
CCOC(=O)C1CCCN(CC(O)COc2cccc(C)c2)C1 (stereo not drawn) | inconclusive: -2.06% | –
NC(=O)CNC(=O)C1CCN(S(=O)(=O)c2ccc(-n3cnnn3)cc2)CC1 | inconclusive: -50% | –
CCC(=O)Nc1ccc(C(=O)CSc2nnc(-c3ccc(O)cc3)n2CC2CCCO2)cc1 (stereo not drawn) | inconclusive: 9.33% | –

A few values from the results shown.
COc1ccc(CNC(=S)Nc2ccc(F)c(Cl)c2)cc1OC | lipid storage change, negative = inhibition: inconclusive: -52.8% [at 0.00295 µM]
Cn1nnc2ccccc2c1=O | lipid storage change, negative = inhibition: inconclusive: 20.4%
CC(=O)Nc1ncc(Cc2cc(Cl)ccc2Cl)s1 | Potency: inconclusive: 25.9 µM [activator, single point]

Additional structures:

Structure (SMILES) | lipid storage change, negative = inhibition | Potency
O=C(CN1C(=O)c2ccccc2S1(=O)=O)Nc1ccccn1 | inconclusive | –
CCOC(=O)C1CCN(C(=O)CCN2C(=O)C3C4C=CC(C4)C3C2=O)CC1 (stereo not drawn) | inconclusive: 29.8% | –
CCC(=O)NC(=S)Nc1ccc(-c2nc3ccccc3s2)cc1 | – | inconclusive: 1.46 µM [rising, full curve]
CC(Sc1nnnn1C)C(=O)NC(=O)NC1CCCCC1 (stereo not drawn) | inconclusive: -16.9% | –
CSc1nnc2c3ccccc3n(Cc3ccccc3)c2n1 | inconclusive: -14.1% | –
COc1ccc(CCNC(=O)c2cc3c(=O)n(C)c4ccccc4c3n2C)cc1OC | – | inconclusive: 10.3 µM [falling, partial curve, poor fit]
NC(=O)c1cc(S(=O)(=O)N2CCCC2)ccc1OCCOc1ccccc1 | – | inconclusive: 1.03 µM [activator, partial curve]
O=C(O)Cn1cc(C(=S)N2CCOCC2)c2ccccc21 | – | active: 23.1 µM
CSc1ccccc1NC(=O)COc1ccc(S(=O)(=O)N2CCCC2)cc1 | inconclusive: 1.3% | –
CN(CCCC1CCCC1)C(=O)c1cc(COc2c(F)cccc2F)on1 | – | active: 5.8 µM
COc1cc(C(=O)NNC(=O)c2cc(S(=O)(=O)N(C)C)ccc2N2CCCC2)cc(OC)c1OC | inconclusive: -38.5% | –
CN1C2C=C(N(CCc3ccccc3)C(=O)c3ccc(Cl)cc3)CC1CC2 (stereo not drawn) | inconclusive: 13.1% | –
O=C(OCC1OC(n2ccc(=O)[nH]c2=O)C(O)C1OC(=O)c1ccccc1)c1ccccc1 (stereo not drawn) | inconclusive: 336% | –
Cc1cc(C)c(NC(=O)CSc2nnc(CNC(=O)c3ccccc3F)o2)c(C)c1 | – | inconclusive: 29.1 µM [activator, single point]
Cc1noc(C)c1C(=O)N1CCN(CCc2ccccc2)CC1 | inconclusive: -51.3% | –
O=C(NC(CCl)c1ccccc1)c1ccc(Cl)cc1 (stereo not drawn) | inactive | –
CN1CCN(C(=O)c2cc(=O)c3cc(Cl)cc(Cl)c3o2)CC1 | inconclusive: 33.6% | –
Cn1c(Cc2cccs2)n[nH]c1=S | inconclusive: 16.7% | –
O=C(C1=C(O)C(=O)N(c2nccs2)C1c1ccccc1)c1cc2ccccc2o1 (stereo not drawn) | inconclusive: -21.1% | –
Cc1ccccc1-n1c(SCC(=O)N/N=C/C=C/c2ccccc2[N+](=O)[O-])nc2ccccc2c1=O | inconclusive: 6.53% | –
CS(=O)(=O)Cc1ccc(C(=O)NCC2(N3CCCCC3)CCCCC2)cc1 | inconclusive: -79.3% | –
Cc1nc2ccc(-c3nc4ccccc4o3)cc2[nH]1 | inconclusive: -10.1% | –
CC(=O)NCc1ccc(C(=O)CSc2nnc(-c3ccncc3)n2Cc2ccccc2)o1 | inconclusive: 6.19% | –
CCc1nnc(NC(=O)CSc2nnc(-c3c[nH]c4ccccc34)n2C)s1 | inactive | –
CN(C)S(=O)(=O)Oc1ccc(C(=O)Nc2ccc([N+](=O)[O-])cc2)cc1 | inconclusive: 3.56% | –
CN1C(=O)CC(C(=O)O)SC1=Nc1cccc(C(F)(F)F)c1 (stereo not drawn) | – | inconclusive: 29.1 µM [falling, single point]
